Experimental data reported in PubChem BioAssay AID488837 (National Center for Advancing Translational Sciences (NCATS), 2010).
Out of some 330,000 compounds screened, about 20 (0.006%) were called active. This list was built around the results that the source calls inconclusive (neither active nor inactive); the mix of calls is not that of the screen. Calls follow the shape of the dose curve; as a rule, active = well fitted inhibition curve with a large enough effect; inconclusive = small, poorly fitted or top-dose-only effect, or effect the other way; inactive = flat fitted curve, though single readings scatter. Potencies of inconclusive entries are doubtful fits and often do not repeat.

Amino acid sequences for entries named in this document (tags omitted). A change or cut given only in a name is not applied to a line headed by its entry.
UniProt O00167: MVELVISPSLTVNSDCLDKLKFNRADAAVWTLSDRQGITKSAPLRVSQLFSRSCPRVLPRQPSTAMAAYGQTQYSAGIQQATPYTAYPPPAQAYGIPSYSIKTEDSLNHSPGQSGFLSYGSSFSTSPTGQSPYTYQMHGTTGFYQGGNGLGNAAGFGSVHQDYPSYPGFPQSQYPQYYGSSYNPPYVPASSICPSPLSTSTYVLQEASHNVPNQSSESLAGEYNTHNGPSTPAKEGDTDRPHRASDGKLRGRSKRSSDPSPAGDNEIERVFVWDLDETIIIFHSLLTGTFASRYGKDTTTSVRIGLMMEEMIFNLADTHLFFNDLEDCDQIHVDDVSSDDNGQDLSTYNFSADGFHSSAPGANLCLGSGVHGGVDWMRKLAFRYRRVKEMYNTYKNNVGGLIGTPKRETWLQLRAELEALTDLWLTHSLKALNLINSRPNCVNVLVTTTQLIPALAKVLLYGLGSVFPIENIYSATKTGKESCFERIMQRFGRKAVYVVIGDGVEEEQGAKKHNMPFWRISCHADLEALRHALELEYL

molecular target: Protein phosphatase EYA2 (Homo sapiens) (UniProt O00167); assay: qHTS Assay for Inhibitors of the Phosphatase Activity of Eya2; details: recombinant Eya2, OMFP fluorescence dephosphorylation (OMFP is methylfluorescein phosphate); activity, negative = inhibition: at 76.9 µM (top of the series) unless noted
Procedure, shortened: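 Eya2 protein (added as 0.2 uM solution) was preincubated with compound for 10 min at ambient temperature in 50 mM HEPES pH 7.5, 50 mM NaCl, 5 uM MgCl2, 0.05% BSA, 1 mM DTT. OMFP (added at 50 uM) then reacted 10 min; fluorescence read at 485/525 nm.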
% is scaled to controls: 0 for no effect and ±100 for the full control effect; potency is read from the fitted curve at half-maximal effect.

| SMILES | activity, negative = inhibition | Potency |
| --- | --- | --- |
| COC(=O)c1sc2ncccc2c1OCc1c(Cl)cccc1Cl | inactive: 7.35% |  |
| O=C(Nn1cnnc1)c1cc(Cl)ccc1Cl |  | inconclusive: 89.1 µM [inhibitor, single point] |
| COc1cccc(CN2CCNC(=O)C2CC(=O)NCCn2ccc3ccccc32)c1OC (stereo not drawn) | inactive: 2.58% |  |
| Cc1ccc(CN=c2c([N+](=O)[O-])nn(-c3ccc(Cl)cc3)n2O)cc1 |  | inconclusive: 224 µM [inhibitor, partial curve, poor fit] |
| Cc1cc(/C=N/NC(=O)c2cccc(N(C)C)c2)c(C)n1-c1cc(C(=O)O)cc(C(=O)O)c1 |  | inconclusive: 22.4 µM [inhibitor, single point] |
| CN(C)CCN=Cc1c(O)n(Cc2ccccc2)c(=O)c2ccccc12 | inactive: 13.9% |  |
| O=C(NCc1ccccc1)c1ccc(S(=O)(=O)N2CCCc3ccccc32)cc1 |  | inconclusive: 14.1 µM [inhibitor, single point] |
| O=c1oc(Nc2cccc(F)c2)nc2ccccc12 |  | inconclusive: 251 µM [inhibitor, single point] |
| COc1ccc(-n2ncc3c(NCC(C)C)ncnc32)cc1 | inactive: -5.07% |  |
| COc1ccc(CC(=O)Nc2ccc(C(=O)NCC(C)C)cc2)cc1 |  | inconclusive: 70.8 µM [inhibitor, single point] |
| CC(=O)NC(c1cc(Cl)c2cccnc2c1O)C(C)C (stereo not drawn) |  | inactive |
| CC1CCC(NC(=O)C2CCN(S(=O)(=O)c3ccc4nc5c(c(C(=O)O)c4c3)CC(C)CC5)CC2)CC1 (stereo not drawn) | inactive: -4.01% |  |
| CCCC(=O)Nc1nn(CC(C)C)c2nc3cc(C)ccc3cc12 |  | inconclusive: 89.1 µM [inhibitor, single point] |
| COc1ccc(CCN2CC(C(=O)N3CCSCC3)CCC2=O)cc1 (stereo not drawn) |  | inconclusive: 100 µM [inhibitor, single point] |
| Cc1ccc(C2(CCNCc3ccco3)CCOC(C(C)C)C2)cc1 (stereo not drawn) |  | inconclusive: 20 µM [inhibitor, single point] |
| CC(C)(CCl)C(=O)Nc1ccc(OC(F)(F)F)cc1 | inactive: -16.8% |  |
| CCn1c(=S)sc2c(=O)n(CC(=O)Nc3ccccc3)c(C)nc21 |  | inconclusive: 112 µM [inhibitor, partial curve] |
| CN(CC(=O)NNC(=O)c1cccnc1)S(=O)(=O)c1cc(Cl)ccc1Cl |  | inconclusive: 126 µM [inhibitor, single point] |
| Cc1cc(C(=O)Nc2ccc(N3CCOCC3)c(Cl)c2)c(C)o1 |  | inconclusive: 89.1 µM [inhibitor, single point] |
| COc1ccc(C2=NN(C(=O)CCC(=O)O)C(c3ccccc3)C2)cc1 (stereo not drawn) |  | inconclusive: 31.6 µM [inhibitor, partial curve] |
| Cc1ccc(-c2csc3ncn(CC#N)c(=O)c23)cc1 | inactive: 7% |  |
| O=C(CNC(=O)c1cccnc1)N/N=C/c1ccc(O)cc1O | inactive: 15.3% |  |
| CC(C)CC(=O)NC(=S)Nc1ccc(S(=O)(=O)N2CCCC2)cc1 |  | inconclusive: 100 µM [inhibitor, single point] |
| Cc1ccc(NC(=S)NCCSc2ccc(Cl)cc2)cc1 | inactive: 6.95% |  |
| Cn1cnnc1Sc1ccc(/C=C(\CC(=O)O)c2nc3ccccc3s2)cc1[N+](=O)[O-] |  | inconclusive: 100 µM [inhibitor, single point] |

A second format for part of the listing above:
SMILES	activity, negative = inhibition	Potency
Cc1cc(/C=N/NC(=O)c2cccc(N(C)C)c2)c(C)n1-c1cc(C(=O)O)cc(C(=O)O)c1		inconclusive: 22.4 µM [inhibitor, single point]
CN(C)CCN=Cc1c(O)n(Cc2ccccc2)c(=O)c2ccccc12	inactive: 13.9%	
COc1ccc(-n2ncc3c(NCC(C)C)ncnc32)cc1	inactive: -5.07%	
Cc1cc(C(=O)Nc2ccc(N3CCOCC3)c(Cl)c2)c(C)o1		inconclusive: 89.1 µM [inhibitor, single point]
Cc1ccc(NC(=S)NCCSc2ccc(Cl)cc2)cc1	inactive: 6.95%	

Next part.

| SMILES | activity, negative = inhibition | Potency |
| --- | --- | --- |
| CCOC(=O)C1=C(C)NC2=C(C(=O)CC(C)(C)C2)C1c1cccc(C)n1 (stereo not drawn) | inactive: -0.342% |  |
| CCOC(=O)C1=C(C)NC(C)=C(C(=O)OC)C1c1ccco1 (stereo not drawn) |  | inconclusive: 100 µM [inhibitor, single point] |
| CCOC(=O)CCCNC(=O)CN1CCC(c2nc3ccccc3s2)CC1 |  | inconclusive: 15.8 µM [inhibitor, single point] |
| Cc1ccc(N=c2c([N+](=O)[O-])nn(-c3ccc(Cl)cc3)n2O)cc1C |  | inconclusive: 355 µM [inhibitor, single point] |
| O=C(O)C(c1ccccc1)N1C(=O)/C(=C\c2ccc(-c3ccc(Br)cc3)o2)SC1=S (stereo not drawn) |  | inconclusive: 100 µM [activator, partial curve, poor fit] |
| Cc1ccc(OCC(=O)Nc2ccc(S(=O)(=O)N3CCCC3)cc2)cc1 | inactive: -11.5% |  |
| COC(=O)c1cc(OC)c(OC)cc1NC(=O)CC1CCCCC1 | inactive: -22.8% |  |
| CCN1/C(=C/c2ccc3cccc(C)c3[n+]2CC)Sc2ccccc21 |  | inconclusive: 31.6 µM [activator, partial curve] |
| CC(C)N1CCN(Cc2ccc(Sc3nncn3C)o2)CC1CCO (stereo not drawn) |  | inconclusive: 100 µM [inhibitor, single point] |
| COc1ccccc1C(=O)NNC(=S)NC(=O)c1cc(OC)c(OC)c(OC)c1 |  | inconclusive: 22.4 µM [inhibitor, single point] |
| C=CCN=C1SC(C)(C)C(=O)N1S(=O)(=O)c1ccc(C)cc1 |  | inconclusive: 22.4 µM [inhibitor, single point] |
| Cc1ccc(/C(N)=N/OC(=O)N2CCOCC2)cc1 |  | inconclusive: 14.1 µM [inhibitor, single point] |
| O=C(N/N=C/C1CC=CCC1)c1ccc(Cl)cc1O (stereo not drawn) | inactive: 3.96% |  |
| Cc1ccccc1C(=O)c1c[nH]c(C(=O)NCc2cccs2)c1 | inconclusive: 30.1% [activator] |  |
| COc1cc2c(c3oc(-c4ccccc4)cc(=O)c13)C=CC(C)(C)O2 | inactive: -6.59% |  |
| O=C(O)c1cccc(-c2ccc(/C=c3/sc4nc5ccccc5n4c3=O)o2)c1 |  | inconclusive: 31.6 µM [activator, partial curve] |
| Cc1ccc(S(=O)(=O)N2CCN(C(=O)COC(=O)CCOc3cc(C)ccc3C)CC2)cc1 | inactive: -18.8% |  |
| C=CCNC(=O)c1c(Cl)cnn1-c1ccc(C)cc1 |  | inconclusive: 20 µM [inhibitor, single point] |
| CCc1ccc(-c2nc(CN3CCC(C(=O)NCc4ccc(F)cc4)CC3)c(C)o2)cc1 | inactive: 12.2% |  |
| Cc1cc(O)c(NC(=S)NC(=O)c2ccc(-c3ccc(Cl)cc3)o2)cc1C | inactive: 8.95% |  |
| COC(=O)c1ccc(C(=O)OC)c(NC(=O)/C=C/C(=O)O)c1 | inactive: -6.44% |  |
| Fc1cccc(-n2c(-c3cccs3)nc3nc4ccccc4nc32)c1 |  | inconclusive: 15.8 µM [inhibitor, single point] |
| CCOC(=O)c1ccccc1NC(=O)CSc1nc(N)cc(=O)[nH]1 |  | inconclusive: 112 µM [inhibitor, single point] |
| COc1ccc(-c2[nH]c(-c3ccc(C)cc3)nc2SCC(=O)NC2CCCC2)cc1 | inactive: -13.7% |  |
| O=c1ccc(-c2ccc(S(=O)(=O)Nc3ccc(F)cc3)o2)n[nH]1 |  | inconclusive: 22.4 µM [inhibitor, single point] |

| SMILES | activity, negative = inhibition | Potency |
| --- | --- | --- |
| O=c1[nH]c(Nc2ccc(F)cc2)cc2ccccc12 |  | inconclusive: 56.2 µM [inhibitor, partial curve] |
| COc1ccccc1-c1c(C)oc2c(CN3CCCC(C)C3)c(O)ccc2c1=O (stereo not drawn) |  | inconclusive: 79.4 µM [inhibitor, partial curve, poor fit] |
| COc1ccc(Cl)cc1C(=O)CSc1nnnn1C1CCCC1 | inactive: 3.36% |  |
| O=C(Nc1cccc([N+](=O)[O-])c1)c1ccc2ccccc2c1O |  | inconclusive: 89.1 µM [inhibitor, single point] |
| OCCOCCNc1ncnc2c1cnn2-c1ccc(Cl)cc1 |  | inconclusive: 22.4 µM [inhibitor, single point] |
| FC(F)(F)COc1nc(N/N=C/c2cccnc2)nc(N2CCCCC2c2ccccn2)n1 (stereo not drawn) |  | inconclusive: 25.1 µM [inhibitor, partial curve] |
| CC(=O)N1Cc2cc([N+](=O)[O-])ccc2Oc2ccccc21 |  | inconclusive: 39.8 µM [inhibitor, partial curve, poor fit] |
| CC(C)CN=Cc1c(O)c([N+](=O)[O-])cc2oc3c(c12)CCCC3 | inactive: 0.461% |  |
| O=C(CCCN1C(=O)c2ccccc2C1=O)Nc1cccc(S(=O)(=O)NC2=NCCC2)c1 |  | inconclusive: 251 µM [inhibitor, partial curve, poor fit] |
| Cc1nn(C)c(Cl)c1S(=O)(=O)N[C@@H](c1ccccc1)[C@]1(C)C[C@H]1[C@@H](C)C(=O)Nc1ccc2ccccc2c1 | inactive: -13.1% |  |
| CC(C)(C)NC(=O)C(c1ccncc1)N(C(=O)Cn1nnc(-c2ccc(F)cc2)n1)c1ccccc1F (stereo not drawn) | inactive: -1.47% |  |
| Cc1onc(-c2ccccc2Cl)c1C(=O)N1CC(C)CC(C)C1 (stereo not drawn) |  | inconclusive: 100 µM [inhibitor, single point] |
| N#Cc1nc(-c2ccc(OCc3ccccc3Cl)cc2)oc1NCCCn1ccnc1 | inactive: -6.22% |  |
| COc1cc2c(cc1OC)C(C)N(C(=O)c1cc3c(=O)oc4ccc(C)cc4c3s1)CC2 (stereo not drawn) | inactive: -0.86% |  |
| Cc1cc(C)n2c(Nc3ccc4c(c3)OCCO4)c(-c3ccccc3)nc2n1 |  | inconclusive: 56.2 µM [inhibitor, single point] |
| COc1cc2c(cc1O)CC[n+]1cc3c(OC)c(OC)ccc3cc1-2 | inactive: -6.73% |  |
| Cc1cc(=O)oc2cc(Oc3ccc(C(N)=O)cc3[N+](=O)[O-])ccc12 |  | inconclusive: 89.1 µM [inhibitor, single point] |
| COc1ccc(S(=O)(=O)N2CCC(N3CCCCC3)CC2)cc1 | inactive: 13.8% |  |
| O=C(CSc1nnc(SCc2ccccc2)s1)N/N=C/C=C/c1ccco1 | inactive: -0.668% |  |
| CN(C)c1ccc(/C=C/c2nc3ccccc3c(=O)n2-c2ccc(C(=O)O)cc2)cc1 |  | inconclusive: 31.6 µM [activator, partial curve] |
| Cc1cc(NC(=O)CSc2ccc3nnc(-c4cccs4)n3n2)no1 | inactive: 21.1% |  |
| COc1ccc(/C=C/c2nnc(NC(=O)COc3ccccc3)s2)cc1 | inactive: 1.46% |  |
| CCCCN1C(Nc2ccccc2)=NC[C@@H]1CC(C)C |  | inconclusive: 70.8 µM [inhibitor, single point] |
